Results: patent US7629310B2, “RhoB as a suppressor of cancer cell growth, cell transformation, and metastasis” (University of South Florida, priority 2000, dated 2009)
For at least one compound, name, drawing or mass did not settle the structure.

What was measured:
PANC-1 cells [1] = assay: Invasion through […]-coated transfilters, PANC-1 cells; format: cell-based, human; settings: PANC-1 cells (FIG. 9B)
Experimental: (§1) HRas/3T3 cells (FIG. 9A) and PANC-1 cells (FIG. 9B) were transiently transfected with pcDNA3 vector control, H-Ras61L, CA-Akt, or WT-Akt in the presence or absence of RhoA, RhoB, or pcDNA3 for 36 hours. The cells were then split and analyzed for their invading capabilities through […]-coated transfilters as described in the Materials and Methods section. PANC-1 and PC3 cells (FIG. 9C) were transiently transfected with pcDNA3, with H-Ras61L in the presence or absence of RhoA, or RhoB for 36 hours. The cells were then serum-starved for another 36 hours; the conditioned medium was collected and 20 μg protein were analyzed for MMP-2 expression by Western Blotting.
(§2) Whether RhoB can also antagonize cell invasion was evaluated. To this end, H-Ras/3T3 and PANC-1 cells were similarly transfected as above with various oncogenes along with RhoA or RhoB, then seeded onto […]-coated poly-hydrocarbonate filters mounted in the middle of a Boyden transwell apparatus as described under Methods. […] Furthermore, transfection with CA-Akt or WT-Akt enhanced invasion; and RhoB, not RhoA, inhibited this enhancement of invasion (FIGS. 9A and 9B).

H-Ras/3T3 cells [2] = assay: Invasion through […]-coated transfilters, H-Ras/3T3 cells; format: cell-based; settings: H-Ras/3T3 cells (FIG. 9A)
Experimental: as §1, §2

MMP-2 = MMP-2 expression in conditioned medium of PANC-1 and PC3 cells (Western blotting); format: cell-based, human; settings: conditioned medium (FIG. 9C)
Experimental: as §1
One pivotal step in these processes is the ability of cancer cells to cut through the extracellular matrix. This is accomplished by a cascade of proteinases, among which matrix metalloproteinases (MMPs) play a pivotal role (Yoon, S. O. et al., J Biochem Mol Biol, 2003, 36:128-37; Stamenkovic, I. Semin Cancer Biol, 2000, 10:415-33). […] To this end, PANC-1 and PC3 cells were treated with LY294002, or transfected with pcDNA3-RhoA or RhoB, and the conditioned culture medium was collected and analyzed for MMP-2 expression by anti-MMP-2 Western blotting as described in the Materials and Methods section.

H-Ras/3T3 cells [3] = assay: Migration through collagen type I coated transfilters, H-Ras/3T3 cells; format: cell-based; settings: H-Ras/3T3 cells (FIG. 8B)
Experimental: (§3) Parental NIH3T3 (FIG. 8A) were transiently transfected with pcDNA3 vector control, H-Ras61L, CA-PI3K, or CA-Akt in the presence or absence of RhoA or RhoB or pcDNA3 for 36 hours. The cells were then split and cultured for another 4 weeks. The plates were examined for focus formation by staining. H-Ras/3T3 cells (FIG. 8B) and PANC-1 cells (FIG. 8C) were transiently transfected with pcDNA3 vector control, CA-Akt, or WT-Akt in the presence or absence of RhoA, RhoB, or pcDNA3 for 36 hours. The cells were then split and analyzed for their migration capabilities through collagen type I coated transfilters as described in the Materials and Methods section. NIH3T3 cells (FIGS. 8D and 8E) were transiently transfected with pcDNA3 vector control, H-Ras61L, CA-Akt, or WT-Akt in the presence or absence of RhoA, RhoB, or pcDNA3 for 36 hours. The monolayers were then scratched with a 20 μl pipette tip and micro-photographed at the time points indicated for analyzing their capability to migrate into and fill the wounded area.

[4] = system: RhoB, RhoA and P-Akt protein levels; assay: P-Akt, RhoB and RhoA protein levels by Western blotting in H-Ras/3T3 cells; format: cell-based
PANC-1 cells [5] = assay: Migration through collagen type I coated transfilters, PANC-1 cells; format: cell-based, human; settings: PANC-1 cells (FIG. 8C)
Experimental: as §3

[6] = H-Ras/3T3 cells, 48 hrs (FIG. 7A)

## O=c1cc(N2CCOCC2)oc2c(-c3ccccc3)cccc12 [LY294002, reference compound]
PANC-1 cells [1]
  invasion through MATRIGEL: did not invade
H-Ras/3T3 cells [2]
  invasion through MATRIGEL: did not invade
MMP-2
  MMP-2 protein secreted: decreased
H-Ras/3T3 cells [3]
  ability to migrate through collagen type I: dramatically hindered
[4]; H-Ras/3T3 cells (FIG. 7A)
  levels of RhoA: did not change
[4]; [6]
  P-Akt levels: inhibited P-Akt levels
  RhoB protein levels: increased RhoB protein levels
PANC-1 cells [5]
  ability to migrate through collagen type I: dramatically hindered
